Results as given in the supplement of paper PMC6411743.
± gives the standard deviation of the averaged measurements. The list shows a part of the results.

Amino acid sequences for entries named in this document (tags omitted). A change or cut given only in a name is not applied to a line headed by its entry.
UniProt P49247: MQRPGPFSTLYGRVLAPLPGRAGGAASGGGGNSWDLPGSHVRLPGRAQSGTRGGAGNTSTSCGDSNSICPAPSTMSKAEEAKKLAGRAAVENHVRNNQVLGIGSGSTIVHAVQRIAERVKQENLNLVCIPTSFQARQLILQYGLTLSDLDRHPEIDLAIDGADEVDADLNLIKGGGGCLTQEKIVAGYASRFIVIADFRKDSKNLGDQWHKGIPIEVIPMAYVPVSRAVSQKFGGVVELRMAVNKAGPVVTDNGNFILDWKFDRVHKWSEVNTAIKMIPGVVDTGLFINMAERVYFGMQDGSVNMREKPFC
UniProt P42785: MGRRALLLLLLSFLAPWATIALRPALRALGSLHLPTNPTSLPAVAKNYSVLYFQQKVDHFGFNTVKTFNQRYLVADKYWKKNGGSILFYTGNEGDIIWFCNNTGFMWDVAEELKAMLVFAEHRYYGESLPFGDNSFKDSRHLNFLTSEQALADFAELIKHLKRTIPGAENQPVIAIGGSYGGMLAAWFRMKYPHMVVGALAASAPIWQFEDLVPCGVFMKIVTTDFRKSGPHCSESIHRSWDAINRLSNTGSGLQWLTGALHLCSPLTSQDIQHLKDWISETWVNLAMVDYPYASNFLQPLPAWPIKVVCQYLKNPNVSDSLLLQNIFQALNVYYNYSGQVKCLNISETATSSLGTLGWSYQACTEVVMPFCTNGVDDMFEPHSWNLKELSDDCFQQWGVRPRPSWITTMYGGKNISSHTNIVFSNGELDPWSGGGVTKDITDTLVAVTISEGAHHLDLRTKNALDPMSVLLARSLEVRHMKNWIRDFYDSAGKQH
UniProt P33527: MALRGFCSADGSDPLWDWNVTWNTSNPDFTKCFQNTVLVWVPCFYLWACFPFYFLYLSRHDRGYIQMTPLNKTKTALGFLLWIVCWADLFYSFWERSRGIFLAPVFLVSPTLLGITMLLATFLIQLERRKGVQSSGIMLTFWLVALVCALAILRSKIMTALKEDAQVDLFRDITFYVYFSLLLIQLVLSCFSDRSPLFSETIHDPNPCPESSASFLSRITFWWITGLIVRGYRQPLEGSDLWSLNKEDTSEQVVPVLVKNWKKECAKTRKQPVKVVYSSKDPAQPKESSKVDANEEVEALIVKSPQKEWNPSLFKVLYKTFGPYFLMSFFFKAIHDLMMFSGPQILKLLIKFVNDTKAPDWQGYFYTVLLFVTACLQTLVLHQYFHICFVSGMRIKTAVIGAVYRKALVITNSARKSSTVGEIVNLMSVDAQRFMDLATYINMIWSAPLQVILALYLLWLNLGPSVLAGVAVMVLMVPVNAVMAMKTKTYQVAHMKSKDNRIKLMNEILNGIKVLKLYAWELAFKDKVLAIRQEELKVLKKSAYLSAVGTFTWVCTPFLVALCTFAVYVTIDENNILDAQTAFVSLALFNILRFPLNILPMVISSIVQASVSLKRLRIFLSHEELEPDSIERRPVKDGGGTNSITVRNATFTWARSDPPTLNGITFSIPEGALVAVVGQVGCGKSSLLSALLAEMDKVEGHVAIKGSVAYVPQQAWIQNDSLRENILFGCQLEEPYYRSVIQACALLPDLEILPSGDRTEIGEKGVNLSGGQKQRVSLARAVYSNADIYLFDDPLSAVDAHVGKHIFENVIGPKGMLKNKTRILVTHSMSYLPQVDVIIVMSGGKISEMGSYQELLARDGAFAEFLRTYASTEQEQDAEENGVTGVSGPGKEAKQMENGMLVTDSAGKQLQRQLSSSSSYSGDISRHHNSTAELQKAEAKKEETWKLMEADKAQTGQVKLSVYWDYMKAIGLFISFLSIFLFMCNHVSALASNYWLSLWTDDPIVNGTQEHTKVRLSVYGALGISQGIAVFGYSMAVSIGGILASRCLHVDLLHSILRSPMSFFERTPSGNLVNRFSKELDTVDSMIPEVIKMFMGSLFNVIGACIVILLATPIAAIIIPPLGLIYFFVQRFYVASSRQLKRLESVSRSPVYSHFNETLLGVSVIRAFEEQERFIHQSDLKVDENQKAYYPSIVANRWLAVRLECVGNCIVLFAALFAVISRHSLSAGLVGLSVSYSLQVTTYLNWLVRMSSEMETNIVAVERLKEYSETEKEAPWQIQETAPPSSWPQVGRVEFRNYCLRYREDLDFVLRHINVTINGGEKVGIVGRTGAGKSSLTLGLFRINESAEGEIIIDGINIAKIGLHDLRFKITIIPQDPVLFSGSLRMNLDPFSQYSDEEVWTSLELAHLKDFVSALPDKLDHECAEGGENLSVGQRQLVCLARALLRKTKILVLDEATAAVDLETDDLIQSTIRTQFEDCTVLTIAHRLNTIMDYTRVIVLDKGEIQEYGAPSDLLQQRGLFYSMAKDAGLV
UniProt P46939: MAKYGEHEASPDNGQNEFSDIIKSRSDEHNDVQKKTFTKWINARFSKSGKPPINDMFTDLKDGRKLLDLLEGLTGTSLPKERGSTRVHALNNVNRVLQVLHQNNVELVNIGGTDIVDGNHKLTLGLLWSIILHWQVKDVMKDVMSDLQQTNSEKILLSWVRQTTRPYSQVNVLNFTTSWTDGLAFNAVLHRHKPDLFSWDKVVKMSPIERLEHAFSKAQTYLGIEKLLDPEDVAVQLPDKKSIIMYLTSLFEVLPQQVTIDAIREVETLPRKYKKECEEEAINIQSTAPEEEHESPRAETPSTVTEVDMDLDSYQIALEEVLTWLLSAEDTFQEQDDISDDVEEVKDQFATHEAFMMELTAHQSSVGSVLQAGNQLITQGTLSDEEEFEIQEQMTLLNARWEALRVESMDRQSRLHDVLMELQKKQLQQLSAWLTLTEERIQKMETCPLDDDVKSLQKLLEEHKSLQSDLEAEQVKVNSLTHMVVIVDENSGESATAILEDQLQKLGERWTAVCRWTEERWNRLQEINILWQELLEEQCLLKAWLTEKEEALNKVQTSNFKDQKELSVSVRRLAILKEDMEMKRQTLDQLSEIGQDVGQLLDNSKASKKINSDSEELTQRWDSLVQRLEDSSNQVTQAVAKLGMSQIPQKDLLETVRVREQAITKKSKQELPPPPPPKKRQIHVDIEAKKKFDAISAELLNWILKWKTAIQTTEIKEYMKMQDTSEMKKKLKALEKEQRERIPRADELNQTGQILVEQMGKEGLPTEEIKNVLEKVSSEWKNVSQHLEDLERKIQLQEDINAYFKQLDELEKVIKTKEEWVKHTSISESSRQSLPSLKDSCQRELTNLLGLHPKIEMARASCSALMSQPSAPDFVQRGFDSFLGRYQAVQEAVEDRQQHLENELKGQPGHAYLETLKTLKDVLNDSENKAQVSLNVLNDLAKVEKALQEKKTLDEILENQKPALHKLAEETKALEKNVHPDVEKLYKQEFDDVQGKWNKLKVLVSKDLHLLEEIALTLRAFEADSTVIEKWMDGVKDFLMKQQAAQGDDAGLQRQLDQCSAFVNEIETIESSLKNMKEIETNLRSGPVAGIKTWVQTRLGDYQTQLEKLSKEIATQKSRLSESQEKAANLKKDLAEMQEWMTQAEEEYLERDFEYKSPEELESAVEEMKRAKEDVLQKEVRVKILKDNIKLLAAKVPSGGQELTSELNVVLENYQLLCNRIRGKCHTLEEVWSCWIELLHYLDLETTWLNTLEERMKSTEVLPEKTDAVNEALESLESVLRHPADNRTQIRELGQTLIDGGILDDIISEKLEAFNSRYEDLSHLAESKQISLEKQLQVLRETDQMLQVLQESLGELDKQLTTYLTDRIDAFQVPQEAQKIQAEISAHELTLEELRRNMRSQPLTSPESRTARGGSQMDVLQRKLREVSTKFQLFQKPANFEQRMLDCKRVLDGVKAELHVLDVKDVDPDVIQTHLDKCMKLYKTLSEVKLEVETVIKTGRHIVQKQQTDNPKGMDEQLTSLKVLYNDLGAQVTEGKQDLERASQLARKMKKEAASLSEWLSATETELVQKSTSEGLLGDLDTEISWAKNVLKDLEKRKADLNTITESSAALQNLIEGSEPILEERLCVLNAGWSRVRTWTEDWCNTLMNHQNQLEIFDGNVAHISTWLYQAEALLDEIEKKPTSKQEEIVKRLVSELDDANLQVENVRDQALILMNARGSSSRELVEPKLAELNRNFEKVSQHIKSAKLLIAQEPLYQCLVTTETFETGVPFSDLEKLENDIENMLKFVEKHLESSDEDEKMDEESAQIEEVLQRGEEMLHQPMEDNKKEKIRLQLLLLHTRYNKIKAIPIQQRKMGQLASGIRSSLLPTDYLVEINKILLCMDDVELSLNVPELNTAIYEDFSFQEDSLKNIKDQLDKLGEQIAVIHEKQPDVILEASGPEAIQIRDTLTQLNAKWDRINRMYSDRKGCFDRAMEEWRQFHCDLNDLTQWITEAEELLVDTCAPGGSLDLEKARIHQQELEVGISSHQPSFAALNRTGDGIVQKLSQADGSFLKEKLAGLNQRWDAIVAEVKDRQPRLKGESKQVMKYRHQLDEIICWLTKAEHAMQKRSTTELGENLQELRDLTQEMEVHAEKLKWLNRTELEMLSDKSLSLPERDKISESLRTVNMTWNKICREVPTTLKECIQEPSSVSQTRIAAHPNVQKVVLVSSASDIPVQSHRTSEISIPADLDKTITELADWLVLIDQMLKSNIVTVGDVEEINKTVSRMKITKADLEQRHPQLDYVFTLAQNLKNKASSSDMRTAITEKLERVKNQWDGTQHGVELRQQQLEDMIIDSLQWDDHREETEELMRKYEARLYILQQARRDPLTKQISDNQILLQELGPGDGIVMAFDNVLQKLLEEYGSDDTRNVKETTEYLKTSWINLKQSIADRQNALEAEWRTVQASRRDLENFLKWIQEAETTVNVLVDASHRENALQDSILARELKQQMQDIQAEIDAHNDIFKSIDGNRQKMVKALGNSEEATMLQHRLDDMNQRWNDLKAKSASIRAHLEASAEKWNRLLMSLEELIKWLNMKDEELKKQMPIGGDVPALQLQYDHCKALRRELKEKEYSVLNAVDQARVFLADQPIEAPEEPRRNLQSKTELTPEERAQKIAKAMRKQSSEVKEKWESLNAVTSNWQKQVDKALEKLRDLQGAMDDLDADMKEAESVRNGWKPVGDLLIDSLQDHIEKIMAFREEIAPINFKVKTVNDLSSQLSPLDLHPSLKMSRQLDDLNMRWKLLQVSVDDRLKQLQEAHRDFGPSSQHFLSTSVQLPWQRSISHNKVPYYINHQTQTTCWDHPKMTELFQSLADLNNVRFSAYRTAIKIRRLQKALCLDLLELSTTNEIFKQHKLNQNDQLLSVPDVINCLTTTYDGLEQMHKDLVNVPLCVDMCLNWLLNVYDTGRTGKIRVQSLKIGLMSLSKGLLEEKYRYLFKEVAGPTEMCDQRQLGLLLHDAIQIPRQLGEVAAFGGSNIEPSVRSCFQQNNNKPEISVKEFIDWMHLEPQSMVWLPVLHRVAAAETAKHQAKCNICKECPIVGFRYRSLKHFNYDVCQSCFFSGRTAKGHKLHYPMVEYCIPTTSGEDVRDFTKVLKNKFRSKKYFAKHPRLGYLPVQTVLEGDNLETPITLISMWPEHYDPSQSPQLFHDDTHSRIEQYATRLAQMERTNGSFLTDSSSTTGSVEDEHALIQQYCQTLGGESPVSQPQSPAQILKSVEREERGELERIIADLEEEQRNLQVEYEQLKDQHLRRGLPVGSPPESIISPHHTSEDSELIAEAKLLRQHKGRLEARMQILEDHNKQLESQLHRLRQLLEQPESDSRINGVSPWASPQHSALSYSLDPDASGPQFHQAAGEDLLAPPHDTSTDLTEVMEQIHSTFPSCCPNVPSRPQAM
UniProt P38117: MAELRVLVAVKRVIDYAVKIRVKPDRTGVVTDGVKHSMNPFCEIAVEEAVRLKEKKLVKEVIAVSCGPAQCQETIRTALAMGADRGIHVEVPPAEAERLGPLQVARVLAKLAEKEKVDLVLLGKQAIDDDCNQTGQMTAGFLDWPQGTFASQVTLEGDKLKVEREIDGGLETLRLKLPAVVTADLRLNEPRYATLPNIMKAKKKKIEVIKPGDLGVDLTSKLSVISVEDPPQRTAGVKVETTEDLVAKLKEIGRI
UniProt P43686, whole entry: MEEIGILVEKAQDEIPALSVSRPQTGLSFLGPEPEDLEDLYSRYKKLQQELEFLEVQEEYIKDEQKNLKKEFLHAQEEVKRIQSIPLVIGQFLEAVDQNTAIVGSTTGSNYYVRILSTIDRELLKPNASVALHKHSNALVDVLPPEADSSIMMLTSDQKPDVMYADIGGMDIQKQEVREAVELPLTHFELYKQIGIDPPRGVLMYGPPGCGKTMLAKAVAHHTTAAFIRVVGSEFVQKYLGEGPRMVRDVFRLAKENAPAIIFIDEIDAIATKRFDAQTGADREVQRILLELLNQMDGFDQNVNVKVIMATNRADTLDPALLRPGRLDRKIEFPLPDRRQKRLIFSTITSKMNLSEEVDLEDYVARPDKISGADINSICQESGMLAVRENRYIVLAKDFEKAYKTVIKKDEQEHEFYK

Compound: Nc1nc2c(ncn2[C@@H]2O[C@H](COP(=O)(O)OP(=O)(O)OP(=O)(O)O)[C@@H](O)[C@H]2O)c(=O)[nH]1 [guanosine triphosphate]
Test: NP40-soluble protein abundance relative to vehicle (solubility fold change) (ratio); higher = more soluble protein in presence of GTP
Outline: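 Across three independent experiments, values are fold changes against the detergent-processed vehicle for each replicate, based on vsn-normalised intensities. The samples were Jurkat crude lysate treated with eight concentrations (0.1 to 10 mM) for 10 min at room temperature and then 3 min at 37 °C. Lysate was solubilised with 0.8% NP40 and benzonase, ultracentrifuged, and the supernatant analysed by TMT-labelled LC-MS/MS.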

Target	NP40-soluble protein abundance (concentration: 0.1mM)	NP40-soluble protein abundance (concentration: 0.5mM)	NP40-soluble protein abundance (concentration: 1mM)	NP40-soluble protein abundance (concentration: 2mM)	NP40-soluble protein abundance (concentration: 4mM)	NP40-soluble protein abundance (concentration: 6mM)	NP40-soluble protein abundance (concentration: 8mM)	NP40-soluble protein abundance (concentration: 10mM)
TUFM (UniProt P49411)	0.98912 ± 0.00053	1.02 ± 0.051	0.952 ± 0.013	0.941 ± 0.019	0.922 ± 0.021	0.9086 ± 0.0014	0.904 ± 0.042	0.868 ± 0.053
PSMB10 (UniProt P40306)	1.1 ± 0.11	1.06 ± 0.088	1.01 ± 0.11	1.05 ± 0.15	1.06 ± 0.14	1.04 ± 0.14	1.04 ± 0.12	0.996 ± 0.11
CTCF (UniProt P49711)	0.982 ± 0.047	1.02 ± 0.027	0.931 ± 0.053	0.911 ± 0.032	0.89 ± 0.043	0.853 ± 0.043	0.839 ± 0.05	0.818 ± 0.052
ACADSB (UniProt P45954)	1.02 ± 0.011	1.01 ± 0.021	0.9803 ± 0.0081	0.975 ± 0.033	0.98 ± 0.023	0.948 ± 0.037	0.915 ± 0.03	0.894 ± 0.011
RPIA (UniProt P49247)	0.978 ± 0.023	0.99 ± 0.028	0.9319 ± 0.0082	0.929 ± 0.025	0.9125 ± 0.0033	0.9167 ± 0.0083	0.874 ± 0.026	0.891 ± 0.037
EIF4A3 (UniProt P38919)	1.04 ± 0.086	1.08 ± 0.13	0.889 ± 0.054	0.928 ± 0.15	0.88 ± 0.099	0.869 ± 0.099	0.809 ± 0.028	0.777 ± 0.08
UniProt P46934-4	1.17 ± 0.1	1.08 ± 0.05	1.04 ± 0.063	1.06 ± 0.071	0.996 ± 0.032	0.982 ± 0.077	1.01 ± 0.038	0.938 ± 0.039
IL2RG (UniProt P31785)	0.962 ± 0.074	0.927 ± 0.11	0.961 ± 0.085	0.934 ± 0.1	0.952 ± 0.074	0.929 ± 0.029	0.93 ± 0.11	0.935 ± 0.08
RANGAP1 (UniProt P46060)	0.902 ± 0.12	0.9 ± 0.1	0.888 ± 0.1	0.888 ± 0.11	0.905 ± 0.12	0.925 ± 0.11	0.943 ± 0.11	0.974 ± 0.15
PRCP (UniProt P42785)	0.972 ± 0.02	1.01 ± 0.05	0.95 ± 0.041	0.971 ± 0.047	0.925 ± 0.034	0.953 ± 0.04	0.938 ± 0.083	0.977 ± 0.11
UniProt P33527 and related entries	0.9975 ± 0.0032	0.997 ± 0.043	0.954 ± 0.018	0.969 ± 0.03	0.953 ± 0.028	0.948 ± 0.017	0.939 ± 0.02	0.9274 ± 0.0024
UniProt P29590 and related entries	0.929 ± 0.072	0.925 ± 0.07	0.953 ± 0.09	0.923 ± 0.11	0.904 ± 0.088	0.933 ± 0.087	0.917 ± 0.066	0.939 ± 0.068
UniProt P49407 and related entries	0.9714 ± 0.0065	0.962 ± 0.017	0.907 ± 0.02	0.91 ± 0.04	0.904 ± 0.054	0.89 ± 0.042	0.885 ± 0.034	0.869 ± 0.058
EIF2S3 (UniProt P41091)	1.02 ± 0.024	1.05 ± 0.045	0.967 ± 0.015	0.98 ± 0.071	0.981 ± 0.04	0.995 ± 0.038	0.956 ± 0.025	0.931 ± 0.065
GSS (UniProt P48637)	0.995 ± 0.015	0.988 ± 0.021	0.916 ± 0.031	0.912 ± 0.02	0.889 ± 0.037	0.888 ± 0.022	0.865 ± 0.053	0.844 ± 0.081
MCM5 (UniProt P33992)	1.05 ± 0.077	1.07 ± 0.12	0.998 ± 0.1	1.03 ± 0.16	1.05 ± 0.13	1.03 ± 0.14	1.01 ± 0.1	0.97 ± 0.12
UTRN (UniProt P46939)	1 ± 0.043	0.978 ± 0.034	1.02 ± 0.051	0.987 ± 0.058	0.999 ± 0.053	0.993 ± 0.043	1.03 ± 0.061	0.985 ± 0.052
NUP62 (UniProt P37198)	0.8692 ± 0.0052	0.889 ± 0.025	1.01 ± 0.021	0.955 ± 0.038	0.988 ± 0.064	1.06 ± 0.053	1.08 ± 0.052	1.19 ± 0.047
ETFB (UniProt P38117)	0.972 ± 0.025	0.991 ± 0.062	0.885 ± 0.028	0.878 ± 0.085	0.814 ± 0.076	0.879 ± 0.08	0.794 ± 0.045	0.797 ± 0.071
ATIC (UniProt P31939)	0.957 ± 0.051	0.975 ± 0.043	0.92 ± 0.049	0.901 ± 0.043	0.894 ± 0.041	0.895 ± 0.038	0.885 ± 0.061	0.861 ± 0.054
UniProt P42684 and related entries	1.03 ± 0.055	1.02 ± 0.043	1.09 ± 0.052	1.1 ± 0.029	1.05 ± 0.078	1.06 ± 0.14	1.04 ± 0.028	1.05 ± 0.019
UniProt P28331 and related entries	1.05 ± 0.054	1.06 ± 0.086	1.07 ± 0.1	1.11 ± 0.14	1.14 ± 0.17	1.12 ± 0.17	1.11 ± 0.15	1.1 ± 0.16
PSMC4 (UniProt P43686)	1.02 ± 0.022	1.07 ± 0.077	1.05 ± 0.1	1.12 ± 0.15	1.1 ± 0.15	1.13 ± 0.19	1.1 ± 0.16	1.06 ± 0.16
UniProt P27361	0.954 ± 0.069	0.96 ± 0.059	0.923 ± 0.053	0.897 ± 0.059	0.901 ± 0.058	0.89 ± 0.043	0.879 ± 0.072	0.877 ± 0.086
P39880-3|Q13948 and related entries (UniProt Q13948+P39880)	0.948 ± 0.035	0.948 ± 0.058	1.01 ± 0.049	0.978 ± 0.063	1.01 ± 0.054	0.997 ± 0.052	1.03 ± 0.024	1.05 ± 0.063
UniProt P39748 and related entries	0.932 ± 0.069	0.945 ± 0.085	0.945 ± 0.072	0.902 ± 0.12	0.877 ± 0.11	0.928 ± 0.11	0.914 ± 0.068	0.908 ± 0.095
CDKN2C (UniProt P42773)	0.85 ± 0.13	0.753 ± 0.079	1.12 ± 0.24	0.961 ± 0.14	0.931 ± 0.051	1.06 ± 0.11	0.884 ± 0.17	0.968 ± 0.32
UniProt P30260 and related entries	1.08 ± 0.039	1.1 ± 0.083	1.12 ± 0.086	1.18 ± 0.14	1.19 ± 0.17	1.24 ± 0.19	1.25 ± 0.18	1.17 ± 0.22
DLST (UniProt P36957)	1.1 ± 0.12	1.21 ± 0.27	1.34 ± 0.35	1.45 ± 0.39	1.57 ± 0.45	1.55 ± 0.51	1.64 ± 0.55	1.63 ± 0.54
UniProt P36507	0.969 ± 0.0035	0.978 ± 0.017	0.956 ± 0.037	0.908 ± 0.044	0.891 ± 0.04	0.891 ± 0.083	0.874 ± 0.039	0.849 ± 0.065

Record cards (already shown). Order of values: NP40-soluble protein abundance (concentration: 0.1mM)	NP40-soluble protein abundance (concentration: 0.5mM)	NP40-soluble protein abundance (concentration: 1mM)	NP40-soluble protein abundance (concentration: 2mM)	NP40-soluble protein abundance (concentration: 4mM)	NP40-soluble protein abundance (concentration: 6mM)	NP40-soluble protein abundance (concentration: 8mM)	NP40-soluble protein abundance (concentration: 10mM)
RPIA (UniProt P49247) as listed: 0.978 ± 0.023	0.99 ± 0.028	0.9319 ± 0.0082	0.929 ± 0.025	0.9125 ± 0.0033	0.9167 ± 0.0083	0.874 ± 0.026	0.891 ± 0.037
IL2RG (UniProt P31785) as listed: 0.962 ± 0.074	0.927 ± 0.11	0.961 ± 0.085	0.934 ± 0.1	0.952 ± 0.074	0.929 ± 0.029	0.93 ± 0.11	0.935 ± 0.08
